At least one compound was matched to its structure with a doubt left. Some of these results come from one statement about several compounds together.
Columns and labels:
[1] = tested on: human melanoma cell line SK-MEL 19; assay: Screening of Spectrum Collection library for enhancers of TMZ-induced growth inhibition (MTT assay); type: cell-based; conditions: 1 μM compound in presence of 50 μg/ml TMZ, 96-well plates
Method: FIGS. 1A and 1B. […] Screening was performed with SK-Mel-19 cells in 96-well plates following by MTT assay. Cells in one set of plate were treated with each library compound alone at 1 μM while cells in the parallel plate were treated with a combination of 1 μM library compound and 50 μg/ml TMZ. Positive candidates were later reconfirmed in triplicate.
A commercial library of 2000 drugs and natural products was screened to identify novel compounds that enhance TMZ-induced growth inhibition in the human melanoma cell line SK-MEL 19. Screening was performed in 96-well plates at final compound concentration of 1 μM, in the absence or presence of 50 μg/ml TMZ, followed by MTT assay (FIG. 1A).

[2] = tested on: metastatic melanoma; conditions: treatment of metastatic melanoma; cited from earlier work
[3] = tested on: melanoma cells; assay: Cell cycle analysis by propidium iodide staining and FACS; type: cell-based; conditions: TMZ 25 μg/ml, PYR 0.5 μM, or both, 72 h
[4] = tested on: melanoma cells; assay: Antifolate agents as enhancers of TMZ, MTT assay (FIG. 7); type: cell-based; conditions: 0.01 uM antifolate in combination with TMZ, 72 h
Method: FIG. 7 is a graph presenting the results of tests of several antifolate agents as enhancers of anti-neoplastic activity. […] Cells were treated with the indicated dose of TMZ alone, or in combination with 0.01 uM PYR, MTX (Methotrexate), TMP (Trimethoprim), TMTX (Trimetrexate), PTX (Piritrexim), and CYC (Cycloguanil). Cell growth was assessed by MTT assay after 72 h drug treatment.
Among the six “hits” identified from library screening, both PYR and triamterene are antifolate compounds.

[5] = tested on: SK-MEL 19; assay: Cell death by trypan blue dye exclusion; type: cell-based, human; conditions: clinically-relevant concentration of TMZ, PYR 0.5 μM, 72 hours
Method: Melanoma cells were exposed to the indicated concentration of TMZ, PYR or both for 72 hours. In FIG. 5A, cell death was evaluated by trypan blue dye exclusion. * P<0.05, compared to 2 or 3. In FIG. 5B, cleaved Caspase-3 was determined by Western blot analysis. 1. Control; 2. TMZ (25 μg/ml); 3. PYR (0.5 μM), and 4. TMZ and PYR combination.
(§1) The cell growth and cytotoxicity after treatment with TMZ and/or PYR on melanoma cells and glioma cells was performed using Colorimetric MTT assay for cell survival and proliferation assay (MTT Assay Kit, Promega). Tumor cells were seeded at 3000 cells per well (100 μl volume) in 96-well plates and allowed to attach overnight. After TMZ and PYR treatment for 72 hours, the cells were stained with MTT, which is then converted to dark blue formazan crystals by mitochondrial dehydrogenases in viable cells. The plates were read with a microplate reader by measuring the absorbance of converted MTT at 490 nm. Results were expressed as the OD490 relative to that of untreated cells. Cell viability was also determined by the trypan-blue dye exclusion method.
To investigate whether PYR can enhance the induction of cell death by TMZ, Trypan blue staining was employed to determine the ratio of dead cells versus total cells in SK-MEL 19. […]

[6] = tested on: cleaved caspase-3 in SK-MEL 19 cells; assay: Western blot of cleaved (activated) caspase-3; type: cell-based, human; conditions: TMZ 25 μg/ml, PYR 0.5 μM or both, 72 hours, immunoblot
[7] = tested on: SK-MEL 19 cells; assay: MTT cell proliferation/viability assay in SK-MEL 19 melanoma cells; type: cell-based, human; conditions: for inhibition of SK-MEL 19 cell proliferation, agent alone: 72 hours, MTT assay
Method: Dose-response diagrams of SKM-19 cells exposed to TMZ (FIG. 2A) or pyrimethamine (PYR) (FIG. 2B) alone were prepared for comparison. Melanoma cells were exposed to the indicated concentration of TMZ or PYR for 72 hours. Cell growth inhibition was evaluated by the MTT assay. Survival relative to the control is presented as mean±standard error of the mean of at least three experiments (with viability of control cells set at 100%). In FIG. 2C, PYR enhances TMZ efficacy in various cancer cell lines. Cells were treated with indicated concentrations of TMZ or PYR at the same time and left for 72 hours. Cell viability was determined by MTT assay. SK-MeI 19, SK-Mel 100, SK-Mel 173, and SK-Mel 192 are melanoma cell lines; LN-18 and T98G are glioma cell lines. * P<0.05, **P<0.01.
FIGS. 8A-8C. PYR antifolate activity enhances TMZ chemotherapeutic efficacy. A, the growth inhibitory effects of PYR, DDEP, DDMP, CYC, and the classical antifolate MTX on TMZ response curve were examined by MTT assay in melanoma and glioma cells. […] The cytotoxic effect of the combination of TMZ (25 μg/ml) and PYR (0.5 μM) can be rescued by LV (10 μM) as examined by MTT assay (B) and the level of cleaved PARP (C) in SK-MEL 19 cells. 1. Control; 2. TMZ; 3. PYR; 4. TMZ+PYR; and 5. TMZ+PYR+LV. ** P<0.01, compared to 2, 3, or 5.
as §1

[8] = tested on: melanoma cells; assay: Enhancement of DTIC/TMZ cell killing (data not shown); type: cell-based
[9] = tested on: O6-methylguanine-DNA-methyltransferase (MGMT); assay: Western blot of MGMT protein level; type: cell-based; conditions: either agent alone or in combination, data not shown
[10] = tested on: phosphorylated histone H2AX in SKM-19 cells; assay: Western blot of phosphorylated histone H2AX (DNA double strand breaks); type: cell-based, human; conditions: TMZ 25 μg/ml, PYR 0.5 μM, 2 h

## C=CC(C1=CC(=O)C(OC)=C(OC)C1=O)c1ccccc1 (stereo not shown) [3,4-dimethoxydalbergione]
[1]
  greater growth inhibition relative to TMZ alone: ≥ 50%

## CN(C)/N=N/c1[nH]cnc1C(N)=O [DTIC, dacarbazine]
[2]
  response rate: 15-20%

## CCc1nc(N)nc(N)c1-c1ccc(Cl)cc1 [PYR, pyrimethamine]
[3]
  cell cycle distribution: increased the number of S phase cells
[4]
  enhancement of TMZ efficacy: enhance TMZ efficacy
[5]
  cell death (ratio of dead cells versus total cells): limited effect on cell death
[6]
  level of activated (cleaved) caspase-3: No obvious change
[7]; 0.005 μM antifolate, SK-MEL 19 cells, MTT
  sensitization to TMZ (effect on TMZ response curve): significant sensitization to TMZ
[7]
  inhibition of SK-MEL 19 cell proliferation, agent alone: dose-dependent inhibition
[8]
  enhancement of cell killing induced by DTIC: enhanced cell killing induced by DTIC
[9]
  MGMT protein level: No alteration
[10]
  level of phosphorylated histone H2AX: modest increase

## Cn1nnc2c(C(N)=O)ncn2c1=O [TMZ, temozolomide]
[3]
  cell cycle distribution: No obvious changes
[6]
  level of activated (cleaved) caspase-3: No obvious change
[7]
  inhibition of SK-MEL 19 cell proliferation, agent alone: dose-dependent inhibition
[9]
  MGMT protein level: No alteration
[10]
  level of phosphorylated histone H2AX: trace level

— US20090270397A1, “Methods and compositions for the treatment of cancers, such as melanomas and gliomas” (priority 2008, published 2009)
